From PMC6901826
These are yes or no findings as the source states them, for the method shown. Binding seen in cells or lysates may run through a third protein. Some binding calls cover weakened binding; strength is not graded here. Where a sequence is shown, tags or fusion partners need not be part of it.

T1: TACI-L, FLAG-labeled (bait) or HA-labeled (prey) (UniProt O14836)
T1 sequence: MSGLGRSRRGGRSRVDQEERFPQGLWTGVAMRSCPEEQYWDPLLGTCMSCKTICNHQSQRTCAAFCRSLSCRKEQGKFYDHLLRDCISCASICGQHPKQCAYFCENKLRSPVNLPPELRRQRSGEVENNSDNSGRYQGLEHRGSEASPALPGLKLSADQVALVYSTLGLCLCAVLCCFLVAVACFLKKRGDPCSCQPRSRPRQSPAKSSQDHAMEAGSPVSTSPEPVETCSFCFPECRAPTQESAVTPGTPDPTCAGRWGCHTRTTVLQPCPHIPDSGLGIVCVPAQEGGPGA

T2: TACI-L, YFP or mCherry labeled (UniProt O14836)
T2 sequence: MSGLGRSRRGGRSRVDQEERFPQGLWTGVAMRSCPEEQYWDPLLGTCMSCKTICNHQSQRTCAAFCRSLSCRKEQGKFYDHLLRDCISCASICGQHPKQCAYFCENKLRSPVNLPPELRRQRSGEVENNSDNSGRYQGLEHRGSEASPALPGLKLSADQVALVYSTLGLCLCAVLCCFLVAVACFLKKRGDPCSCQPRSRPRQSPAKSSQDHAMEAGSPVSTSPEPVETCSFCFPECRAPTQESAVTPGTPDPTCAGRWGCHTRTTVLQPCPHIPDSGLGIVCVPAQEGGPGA


Columns and labels:
[1] = target: T1, TACI-L, FLAG-labeled (bait) or HA-labeled (prey); experiment: co-IP; HA-labeled and FLAG-labeled TACI transfected into HEK-293T cells; precipitated by FLAG, immunoblot with anti-HA
[2] = target: T2, TACI-L, YFP or mCherry labeled; experiment: FRET or BRET; FRET read by FACS (LSRII) in HEK-293T cells co-transfected with YFP and mCherry labeled constructs, 48 h after transfection; at least 50,000 positive cells; CD40-eYFP as a control

binding [1]	binding [2]	Binder
binds		TACI-L, FLAG-labeled (bait) or HA-labeled (prey) (receptor, UniProt O14836 1-293) MSGLGRSRRGGRSRVDQEERFPQGLWTGVAMRSCPEEQYWDPLLGTCMSCKTICNHQSQRTCAAFCRSLSCRKEQGKFYDHLLRDCISCASICGQHPKQCAYFCENKLRSPVNLPPELRRQRSGEVENNSDNSGRYQGLEHRGSEASPALPGLKLSADQVALVYSTLGLCLCAVLCCFLVAVACFLKKRGDPCSCQPRSRPRQSPAKSSQDHAMEAGSPVSTSPEPVETCSFCFPECRAPTQESAVTPGTPDPTCAGRWGCHTRTTVLQPCPHIPDSGLGIVCVPAQEGGPGA
	binds	TACI-S, YFP or mCherry labeled (receptor, UniProt O14836-2 1-247) MSGLGRSRRGGRSRVDQEERWSLSCRKEQGKFYDHLLRDCISCASICGQHPKQCAYFCENKLRSPVNLPPELRRQRSGEVENNSDNSGRYQGLEHRGSEASPALPGLKLSADQVALVYSTLGLCLCAVLCCFLVAVACFLKKRGDPCSCQPRSRPRQSPAKSSQDHAMEAGSPVSTSPEPVETCSFCFPECRAPTQESAVTPGTPDPTCAGRWGCHTRTTVLQPCPHIPDSGLGIVCVPAQEGGPGA
binds		HA-labeled TACI-S (receptor, UniProt O14836-2 1-247) MSGLGRSRRGGRSRVDQEERWSLSCRKEQGKFYDHLLRDCISCASICGQHPKQCAYFCENKLRSPVNLPPELRRQRSGEVENNSDNSGRYQGLEHRGSEASPALPGLKLSADQVALVYSTLGLCLCAVLCCFLVAVACFLKKRGDPCSCQPRSRPRQSPAKSSQDHAMEAGSPVSTSPEPVETCSFCFPECRAPTQESAVTPGTPDPTCAGRWGCHTRTTVLQPCPHIPDSGLGIVCVPAQEGGPGA
